According to patent US20050118638A1:
Results are given in words; binding and its absence hold for the method and conditions named. Some entries that bind do so weakly or less than the wild type.

Sequences of proteins named here, by UniProt entry; tags and fusion partners are left off. Residues count along the entry.
UniProt P16473, residues 21-764: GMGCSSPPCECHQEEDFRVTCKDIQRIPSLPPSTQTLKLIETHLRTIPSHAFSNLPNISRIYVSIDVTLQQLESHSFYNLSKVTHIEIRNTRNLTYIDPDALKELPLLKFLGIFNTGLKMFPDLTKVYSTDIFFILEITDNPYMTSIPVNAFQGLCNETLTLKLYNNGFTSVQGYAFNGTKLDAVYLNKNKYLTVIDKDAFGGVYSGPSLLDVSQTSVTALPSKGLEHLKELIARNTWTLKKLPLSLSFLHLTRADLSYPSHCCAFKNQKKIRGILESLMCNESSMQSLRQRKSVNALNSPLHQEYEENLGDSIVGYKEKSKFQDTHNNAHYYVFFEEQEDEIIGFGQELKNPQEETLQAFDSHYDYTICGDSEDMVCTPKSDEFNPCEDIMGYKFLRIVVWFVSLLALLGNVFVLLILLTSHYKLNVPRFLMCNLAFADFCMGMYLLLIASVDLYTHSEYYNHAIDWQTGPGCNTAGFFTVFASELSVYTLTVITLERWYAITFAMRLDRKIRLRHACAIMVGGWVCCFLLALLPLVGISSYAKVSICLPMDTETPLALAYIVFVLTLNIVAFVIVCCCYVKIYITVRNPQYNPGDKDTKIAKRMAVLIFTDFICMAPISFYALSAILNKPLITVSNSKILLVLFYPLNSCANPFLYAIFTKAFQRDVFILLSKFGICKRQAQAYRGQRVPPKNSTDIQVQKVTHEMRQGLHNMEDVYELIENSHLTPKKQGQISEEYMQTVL

Biological target: TSH receptor (detergent solubilised TSH receptor preparation) (UniProt P16473)
Assay: 125I-16E5 IgG on TSHR coated tubes

binding: binds
B1: 16E5 IgG (antibody, V domains shown, not shown: a dimerising Fc or GST)
VH: DVQLVQSGPELVKPGASVKMSCKASGYSFTGYNMHWVKQSHGKSLEWIGYIDPYNGATSYNQKFEDKATLTVDKSSSTAYMQLNSLTSEDSAVYYCARRWDWDPYAMDYWGQGTSVTVSS
VL: DILLTQSPAILSVSPGERVSFSCRASQSIGTSIHWYQQRTNGSPRLLIKYASESISGIFSRFSGSGSGTDFTLTINSVESEDIADYYCQQSNRWPLTFGAGTKLELKR
